We go through 42 sequences from paper PMC7819943, “Rice protein-binding microarrays: a tool to detect cis-acting elements near promoter regions in rice”.

The list shows a part of the results.

In the assay the target is T1, OsSMF1 (Oryza sativa, UniProt Q6ZLB0 1-436).
T1 sequence: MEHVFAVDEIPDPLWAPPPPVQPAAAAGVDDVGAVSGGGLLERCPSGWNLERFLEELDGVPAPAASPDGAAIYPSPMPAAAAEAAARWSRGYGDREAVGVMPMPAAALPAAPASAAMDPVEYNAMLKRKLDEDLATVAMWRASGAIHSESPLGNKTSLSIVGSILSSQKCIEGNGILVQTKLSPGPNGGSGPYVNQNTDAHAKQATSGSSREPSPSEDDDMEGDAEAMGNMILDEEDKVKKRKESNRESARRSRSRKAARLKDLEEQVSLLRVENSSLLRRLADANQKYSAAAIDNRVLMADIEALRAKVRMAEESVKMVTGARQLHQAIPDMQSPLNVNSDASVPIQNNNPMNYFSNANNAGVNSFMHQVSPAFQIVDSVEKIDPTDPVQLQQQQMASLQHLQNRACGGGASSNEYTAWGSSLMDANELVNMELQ
Kind of assay: protein-binding microarray (RPBM); PBS, 2% BSA, 51.3 ng/ul salmon testes DNA, 50 uM zinc acetate, 200 nM TF, 25 C, 1 h; high values mean tight binding. The following applies: protein: recombinant; tags: N-terminal polyhistidine and DsRed monomer fusion (pET32a); chain copies: 2; label: CyDye5-dUTP incorporated in the synthesized complementary strand; 3' TTTTT single-stranded linker to array surface; dsDNA, one strand shown. Summed up:
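Ni–NTA purification followed expression in E. coli BL21-CodonPlus of transcription factors fused N-terminally to a polyhistidine tag and DsRed. At 200 nM in PBS with 2% BSA, salmon testes DNA and 50 µM zinc acetate, the protein was incubated for 1 h at 25 °C with a custom Agilent array that had been primer-extended with Cy5-dUTP and blocked with 2% BSA. After washing, the array was read on an Axon 4000B scanner. The binding signal is per-feature fluorescence intensity in arbitrary units.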
Turning to “GCTGTATCAAAAGAAGTCGTACGTGGACATATGTGTGAGCCGGAGTCACCTAGTGCAG”, the binding signal was 5260 fluorescence intensity (a.u.).

Consider “TTTCTTCGACACGTCGTCTAGTGCTGCTAGCTGTGACCTCCGGAGTCACCTAGTGCAG”, for which the binding signal is 4540 fluorescence intensity (a.u.).

As to “TTAACTCGTACAGTACAGGGTAATGAACTGTACCGGCGTGCGGAGTCACCTAGTGCAG”, the binding signal is 25300 fluorescence intensity (a.u.).

As to “TTCAAATGCCACCTAAACGCCACGTCAACCCCATAGACTACGGAGTCACCTAGTGCAG”, the binding signal was 15600 fluorescence intensity (a.u.).

As to “TAAGCCTTAAGGTCGTCGCACATGCGTGATTTATTTAACTCGGAGTCACCTAGTGCAG”, the binding signal is 4220 fluorescence intensity (a.u.).

As to “TCTTATCTGCATCCAACTGTACTCCAGCATGATCCACAACCGGAGTCACCTAGTGCAG”, the binding signal is 3420 fluorescence intensity (a.u.).

In the case of “CTTGATAATTAGTGGATGATGATGTGTCATCTTTACATGTCGGAGTCACCTAGTGCAG”, the binding signal is 23800 fluorescence intensity (a.u.).

Take “CCGAGTCTTGCTTGCCAAGCGAGTGCGTGTAGAGTGGTTTCGGAGTCACCTAGTGCAG”: the binding signal is 3360 fluorescence intensity (a.u.).

Turning to “ACAGGCTGAGTTGGCTTGTGGTGCTTCCCAGCCTTCACTGCGGAGTCACCTAGTGCAG”, the binding signal was 3320 fluorescence intensity (a.u.).

Turning to “TTTCTAGACAATTTGTCTCTTGCGGTGACACCTAGTTAGTCGGAGTCACCTAGTGCAG”, the binding signal was 4880 fluorescence intensity (a.u.).

Take “GCCCAGCAAATGCCGTACGTGGCCGCATTGCCGGCGGGCGCGGAGTCACCTAGTGCAG”: the binding signal is 3760 fluorescence intensity (a.u.).

Take “CCGCGTTCGTGCCGACGCGTGTGAAACGGCCGAGGTCGTGCGGAGTCACCTAGTGCAG”: the binding signal was 3680 fluorescence intensity (a.u.).

For “CTGCAGCGAGTGCATCTTCGGGCATGGCCCCATGTCCATCCGGAGTCACCTAGTGCAG”, the binding signal was 12300 fluorescence intensity (a.u.).

As to “AAGATTGAAGGCAACCAAACCAACAAGGATGGATGCTTCTCGGAGTCACCTAGTGCAG”, the binding signal was 37800 fluorescence intensity (a.u.).

“ACGAAAACGACGTAAGCTGTAGTCAGAGTTTCAGACTATGCGGAGTCACCTAGTGCAG”: the binding signal is 3270 fluorescence intensity (a.u.).

Consider “TGTTTGTATAATTTTGAGTTATCAACAGTCGCGATGGAGACGGAGTCACCTAGTGCAG”, for which the binding signal was 24900 fluorescence intensity (a.u.).

As to “ATCCATCCGGCGAAACTTCCACTGATGAATCGGACTTCCCCGGAGTCACCTAGTGCAG”, the binding signal was 3240 fluorescence intensity (a.u.).

Consider “CGCAGCATCCCCGCCTGCTGTCACCGCCTAGCTACGTAAGCGGAGTCACCTAGTGCAG”, for which the binding signal was 3680 fluorescence intensity (a.u.).

As to “TCTCATCCTAATTAAATTTACCATTTAACACTATGGGTTACGGAGTCACCTAGTGCAG”, the binding signal was 14200 fluorescence intensity (a.u.).

With “GTTATAGGAGGTTCAATGGCTGTATGCCACGTCGGCAAAACGGAGTCACCTAGTGCAG”, the binding signal was 14700 fluorescence intensity (a.u.).

As for “CGGCCGCCCCGACGAGCTCGCCTCCTCCCTCGTGGCGCTCCGGAGTCACCTAGTGCAG”, the binding signal is 3580 fluorescence intensity (a.u.).

For the sequence “CACACACACACACACATGGCACATTGCTCATTGATCTTAGCGGAGTCACCTAGTGCAG”, the binding signal is 4280 fluorescence intensity (a.u.).

On to “ACCTAGGCATCTAGCGCATCAAGCTGACACAGGAGTCCACCGGAGTCACCTAGTGCAG”, for which the binding signal was 3300 fluorescence intensity (a.u.).

For the sequence “GTTGAGTGTTGAGCTCGGTCGTCCTGTTCTTGACTTCTCGCGGAGTCACCTAGTGCAG”, the binding signal was 3750 fluorescence intensity (a.u.).

In the case of “ACTTGATCATACGAGTCAGTGTAGGATTTGATTGGTTGCACGGAGTCACCTAGTGCAG”, the binding signal is 3650 fluorescence intensity (a.u.).

Turning to “ATCCTACCCTTCGATCTGATTCATTCGCCGCCGCCGAATCCGGAGTCACCTAGTGCAG”, the binding signal was 3510 fluorescence intensity (a.u.).

“GTTAAACGCGCTGCCACGCGGCTTACACGCGTATCAAGAACGGAGTCACCTAGTGCAG”: the binding signal was 3700 fluorescence intensity (a.u.).

For “ACCTGAAATCCCGCTTTGTCATTGGGTACGTTGTGTCATCCGGAGTCACCTAGTGCAG”, the binding signal is 3830 fluorescence intensity (a.u.).

Consider “GTCGGCGAACGGGCGGCCGCTCCGCGTCGCCGTCCCGGTGCGGAGTCACCTAGTGCAG”, for which the binding signal was 5220 fluorescence intensity (a.u.).

For “TGGATCTGGTAGTTACGTAATCAGAGTGGACACGCCGCGTCGGAGTCACCTAGTGCAG”, the binding signal was 4140 fluorescence intensity (a.u.).

In the case of “CGCTGAGATCACTAGCCAGAGCCTCACGTGTCCCGAACTTCGGAGTCACCTAGTGCAG”, the binding signal is 4300 fluorescence intensity (a.u.).

For “TACAAATGAATTTGGATCACAACTCAACACTCTAAGCCCTCGGAGTCACCTAGTGCAG”, the binding signal was 24400 fluorescence intensity (a.u.).

As for “TTCGGCCTCCACATCATCATCTCCTCTCCTCTCTCGTCTCCGGAGTCACCTAGTGCAG”, the binding signal is 19100 fluorescence intensity (a.u.).

In the case of “ATCTTTGATTTGTCCTAAATTTGTGATGGGGATGTCACCGCGGAGTCACCTAGTGCAG”, the binding signal is 6560 fluorescence intensity (a.u.).

In the case of “GGGGTGGGCGGCCGCGGGAGCTCCACGGCATCGATCGCCACGGAGTCACCTAGTGCAG”, the binding signal is 4180 fluorescence intensity (a.u.).

“TGCAGGGACGATCTGATGGACAGCTCGGATTCGTCCCACACGGAGTCACCTAGTGCAG”: the binding signal is 3190 fluorescence intensity (a.u.).

Regarding “TCAGGGGTGGTGGTTCGTTGAAGTCGGCCGATGGAGGGGCCGGAGTCACCTAGTGCAG”, the binding signal was 3200 fluorescence intensity (a.u.).

Turning to “TTATCTCCTCATCCATTTTCATCCTCGTCTACATTCACTGCGGAGTCACCTAGTGCAG”, the binding signal was 24600 fluorescence intensity (a.u.).

On to “TGGTAGACGACGTGGCTGTTGACTGTGAGACGTCTATGGTCGGAGTCACCTAGTGCAG”, for which the binding signal was 5180 fluorescence intensity (a.u.).

Turning to “CCAATCCCGGTGGCGCCAGGCGATTCGTGGCCACGCCAGACGGAGTCACCTAGTGCAG”, the binding signal was 3590 fluorescence intensity (a.u.).

“CGCTGCATCGACGTGGAGCTGCAGTTGTGTTGTCCTCTCGCGGAGTCACCTAGTGCAG”: the binding signal is 8820 fluorescence intensity (a.u.).

As for “GTCAGTCACCGCCCTGTGGGGCCCACCCACCCGCGCCGTCCGGAGTCACCTAGTGCAG”, the binding signal is 9640 fluorescence intensity (a.u.).
